Data on 4 molecules can be found in patent publication US20070154905A1.

No constants are given. Whether binding was seen depends on the method and setting.

The target in experiment [1] is lamin. Description: yeast two-hybrid, β-galactosidase filter assay.
Experiment [2] deals with cyclin D. As to the kind of experiment: yeast two-hybrid, β-gal filter assay (FIG. 5).
Experiment [3] addresses lamin. Description: yeast two-hybrid, β-gal filter assay (FIG. 5).
For experiment [4], the target named is cyclin D. As to the kind of experiment: yeast two-hybrid, β-galactosidase test (FIG. 1); cyclin D is named as a negative control in paragraph 206.
Experiment [5] has as its target lamin. Description: yeast two-hybrid, β-galactosidase test (FIG. 1); lamin is named as a negative control in paragraph 206.
Experiment [6] addresses cyclin D. Description: yeast two-hybrid, β-galactosidase expression.
Experiment [7] concerns the target lamin. As to the kind of experiment: yeast two-hybrid, β-galactosidase expression.

B1: MACH (construct with the full-length MACH cDNA) (protein)
chain: MDFSRNLYDIGEQLDSEDLASLKFLSLDYIPQRKQEPIKDALMLFQRLQEKRMLEESNLSFLKELLFRINRLDLLITYLNTRKEEMERELQTPGRAQISAYRVMLYQISEEVSRSELRSFKFLLQEEISKCKLDDDMNLLDIFIEMEKRVILGEGKLDILKRVCAQINKSLLKIINDYEEFSKERSSSLEGSPDEFSNDFGQSLPNEKQTSGILSDHQQSQFCKSTGESAQTSQH
In the case of B1, the binding entry with lamin [1] was “no binding (tested: no color within 24 hrs)”.

B2: MACHβ1 (ORF-B of MACH) (protein)
chain: B1 chain
For B2, the values for the binding result with lamin [1], with cyclin D [2] and with lamin [3] were “no binding (tested: no color within 24 hrs)”, “no binding” and “no binding”, respectively.

B3: MORT-1 protein (full-length) (protein)
chain: VNQAPECRFGGGILGPLGKRRDLARASEPRTEGARRAGPQPRPLADPAMDPFLVLLHSVSSSLSSSELTELKFLCLGRVVKRKLERVQSGLDLFSMLLEQNDLEPGHTELLRELLASLRRHDLLRRVDDFEAGAAAGAAPGEEDLCAAFNVICDNVGKDWRRLARQLKVSDTKIDSIEDRYPRNLTERVRESLRIWKNTEKENATVAHLVGALRSCQMNLVADLVQEVQQARDLQNRSGAMSPMSWNSDASTSEAS
Regarding B3, the binding entry with cyclin D [4], with lamin [5], in the experiment with cyclin D [2] and in the experiment with lamin [3] was “no binding” in each case.

B4: MORT-1-binding protein of Example 2 (product of the two cDNA clones from the human B-cell library) (protein, UniProt Q15628 1-312, looked up)
chain: MAAGQNGHEEWVGSAYLFVESSLDKVVLSDAYAHPQQKVAVYRALQAALAESGGSPDVLQMLKIHRSDPQLIVQLRFCGRQPCGRFLRAYREGALRAALQRSLAAALAQHSVPLQLELRAGAERLDALLADEERCLSCILAQQPDRLRDEELAELEDALRNLKCGSGARGGDGEVASAPLQPPVPSLSEVKPPPPPPPAQTFLFQGQPVVNRPLSLKDQQTFARSVGLKWRKVGRSLQRGCRALRDPALDSLAYEYEREGLYEQAFQLLRRFVQAEGRRATLQRLVEALEENELTSLAEDLLGLTDPNGGLA
For B4, the binding entry in the experiment with cyclin D [6] and in the experiment with lamin [7] was “no binding” throughout.
